{
  "source": "patent US20240400531A1",
  "about": "“HERBICIDAL MALONAMIDES CONTAINING A CONDENSED RING SYSTEM” (BASF SE, priority 2021, published 2024)",
  "key": {"ECHCG": {"test_system": "ECHCG", "assay": "greenhouse pre-emergence herbicidal test", "assay_type": "in vivo, Echinocloa crus-galli", "settings": "pre-emergence method, application rate 0.250 kg/ha, scale from 0 to 100"}, "SETVI": {"test_system": "SETVI", "assay": "greenhouse post-emergence herbicidal test", "assay_type": "in vivo, Setaria viridis", "settings": "post-emergence method, application rate 0.250 kg/ha, scale from 0 to 100"}},
  "note": "Some results were stated once for a whole list of compounds, not compound by compound.",
  "data": [
    {"smiles": "COC(C(=O)Nc1cccc2scnc12)C(=O)N[C@H]1C=C[C@@H](C(=O)OC(C)C)C1", "note": "(stereo partly drawn) [I.9, isopropyl (1S,4R)-4-[[3-(1,3-benzothiazol-4-ylamino)-2-methoxy-3-oxo-propanoyl]amino]cyclopent-2-ene-1-carboxylate]", "values": [
      {"measurement": "herbicidal activity against ECHCG", "setting": "ECHCG", "result": "good (A good herbicidal activity is given at values of 65 to <90)"},
      {"measurement": "herbicidal activity against SETVI", "setting": "SETVI", "result": "good (A good herbicidal activity is given at values of 65 to <90)"}
    ]}
  ]
}
